Data as given in PubChem BioAssay AID743121 (NCATS, 2013).

Screen: 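Partners whose loss is lethal together with topoisomerase I blockade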 (primary screen)
Cell system: MDA-MB-231 cells, a human breast cancer line
Reagents: single siRNA against human genes, 20 nM siRNA (0.8 pmol per well)
Timing: 120 h (drug added 48 h after transfection, read 72 h later)
Challenge: camptothecin 20 nM (about EC30) for 72 h; vehicle 0.1% DMSO in parallel plates
Detection: 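CellTiter-Glo ATP signal, scaled to control siRNA as percent viability; sensitisation given as log2 of untreated divided by camptothecin-treated viability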
Reading the numbers: log2 vehicle/camptothecin viability: higher = stronger sensitisation to camptothecin; viability with camptothecin: higher = more viable cells
Units: viability with camptothecin in % of control
Active means: 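Active genes have an RSA gene-level p-value below 0.001, computed from the ratios of their separate siRNAs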
The deposit covers about 26,000 reagents; shown is a part drawn at random. Over the whole deposit, 167 (0.63%) were called active. 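Calls are per gene from RSA p-values that are not deposited; an individual active-marked siRNA can sensitise only weakly.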 A number with no mark means an inactive call. The numbers tell different reagents against one gene apart. Further read-outs or replicates are left out here.

Against PTGR1 (prostaglandin reductase 1) #1 the deposit lists log2 vehicle/camptothecin viability -0.319; viability with camptothecin 120.
For PTGR1 (prostaglandin reductase 1) #2, the entry reads log2 vehicle/camptothecin viability 0.146; viability with camptothecin 38.7.
Depletion of PTGR1 (prostaglandin reductase 1) #3 gave: log2 vehicle/camptothecin viability -0.0208; viability with camptothecin 104.
For PTGR1 (prostaglandin reductase 1) #4, the values are log2 vehicle/camptothecin viability -0.0631; viability with camptothecin 104.
FBXO6 (F-box protein 6) #1 gave log2 vehicle/camptothecin viability -0.232; viability with camptothecin 71.5.
With knock-down of FBXO6 (F-box protein 6) #2, the record shows log2 vehicle/camptothecin viability 0.0418; viability with camptothecin 65.8.
FBXO6 (F-box protein 6) #3 scored log2 vehicle/camptothecin viability -0.569; viability with camptothecin 13.3.
Knock-down of NR2E3 (nuclear receptor subfamily 2 group E member 3) #1 came out at: log2 vehicle/camptothecin viability -0.263; viability with camptothecin 40.8.
For NR2E3 (nuclear receptor subfamily 2 group E member 3) #2, the entry reads log2 vehicle/camptothecin viability 0.211; viability with camptothecin 74.3.
Against NR2E3 (nuclear receptor subfamily 2 group E member 3) #3 the deposit lists log2 vehicle/camptothecin viability 0.839; viability with camptothecin 45.2.
Depletion of NR2E3 (nuclear receptor subfamily 2 group E member 3) #4 gave: log2 vehicle/camptothecin viability 0.246; viability with camptothecin 66.5.
Against MMP25 (matrix metallopeptidase 25) #1 the deposit lists log2 vehicle/camptothecin viability -0.495; viability with camptothecin 64.1.
For MMP25 (matrix metallopeptidase 25) #2, the values are log2 vehicle/camptothecin viability -0.635; viability with camptothecin 92.
After knock-down of MMP25 (matrix metallopeptidase 25) #3, the record shows log2 vehicle/camptothecin viability 0.176; viability with camptothecin 14.7.
After knock-down of MMP25 (matrix metallopeptidase 25) #4, the screen gave log2 vehicle/camptothecin viability -0.134; viability with camptothecin 92.
After knock-down of KDSR (3-ketodihydrosphingosine reductase) #1, the record shows log2 vehicle/camptothecin viability 0.141; viability with camptothecin 80.1.
Against KDSR (3-ketodihydrosphingosine reductase) #2, the entry reads log2 vehicle/camptothecin viability -0.345; viability with camptothecin 57.2.
With knock-down of KDSR (3-ketodihydrosphingosine reductase) #3, the record shows log2 vehicle/camptothecin viability -0.132; viability with camptothecin 98.7.

In a second layout: results already given
Target gene | reagent | log2 vehicle/camptothecin viability | viability with camptothecin
NR2E3 (nuclear receptor subfamily 2 group E member 3) | 1 | -0.263 | 40.8
NR2E3 (nuclear receptor subfamily 2 group E member 3) | 2 | 0.211 | 74.3

More entries:
With knock-down of COQ3 (coenzyme Q3, methyltransferase) #1 the results were log2 vehicle/camptothecin viability -0.284; viability with camptothecin 101.
COQ3 (coenzyme Q3, methyltransferase) #2 gave log2 vehicle/camptothecin viability 0.292; viability with camptothecin 80.4.
COQ3 (coenzyme Q3, methyltransferase) #3 showed log2 vehicle/camptothecin viability 0.107; viability with camptothecin 54.3.
Depletion of COQ3 (coenzyme Q3, methyltransferase) #4 resulted in: log2 vehicle/camptothecin viability 0.0387; viability with camptothecin 83.8.
Depletion of GABRG2 (gamma-aminobutyric acid type A receptor subunit gamma2) #1 came out at: log2 vehicle/camptothecin viability -0.326; viability with camptothecin 86.4.
With knock-down of GABRG2 (gamma-aminobutyric acid type A receptor subunit gamma2) #2, the record shows log2 vehicle/camptothecin viability 0.0393; viability with camptothecin 111.
For GABRG2 (gamma-aminobutyric acid type A receptor subunit gamma2) #3, the values are log2 vehicle/camptothecin viability -0.366; viability with camptothecin 94.4.
Depletion of GABRG2 (gamma-aminobutyric acid type A receptor subunit gamma2) #4 gave: log2 vehicle/camptothecin viability 0.0697; viability with camptothecin 86.6.
For TALDO1 (transaldolase 1) #1, the values are log2 vehicle/camptothecin viability -0.301; viability with camptothecin 58.6.
TALDO1 (transaldolase 1) #2 showed log2 vehicle/camptothecin viability -0.0118; viability with camptothecin 59.
TALDO1 (transaldolase 1) #3 gave log2 vehicle/camptothecin viability -0.172; viability with camptothecin 82.4.
Depletion of TALDO1 (transaldolase 1) #4 resulted in: log2 vehicle/camptothecin viability 0.0296; viability with camptothecin 102.
With knock-down of LCT (lactase) #1, the screen gave log2 vehicle/camptothecin viability -0.289; viability with camptothecin 118.
Silencing of LCT (lactase) #2 came out at: log2 vehicle/camptothecin viability -0.162; viability with camptothecin 95.2.
Against LCT (lactase) #3, the entry reads log2 vehicle/camptothecin viability -0.101; viability with camptothecin 96.
LCT (lactase) #4 scored log2 vehicle/camptothecin viability 0.0248; viability with camptothecin 80.4.
After knock-down of KCNH4 (potassium voltage-gated channel subfamily H member 4) #1, the record shows log2 vehicle/camptothecin viability -0.336; viability with camptothecin 113.
Against KCNH4 (potassium voltage-gated channel subfamily H member 4) #2 the deposit lists log2 vehicle/camptothecin viability -0.394; viability with camptothecin 48.4.
After knock-down of KCNH4 (potassium voltage-gated channel subfamily H member 4) #3, the record shows log2 vehicle/camptothecin viability -0.194; viability with camptothecin 46.3.
With knock-down of KCNH4 (potassium voltage-gated channel subfamily H member 4) #4, the record shows log2 vehicle/camptothecin viability -0.624; viability with camptothecin 50.9.
